Test results from US12545644B2, “6-azido-1.3 benzo[de]isoquinoline compounds photo-crosslinked by visible light and uses thereof” (SEOUL NATIONAL UNIVERSITY R&DB FOUNDATION, priority 2021, dated 2026).
Some of these results come from one statement about several compounds together.

Sequences of proteins named here, by UniProt entry; tags and fusion partners are left off. A line that says so, or that is headed by a name, gives the form on record, which may keep a tag or linker.
UniProt Q00688, with tags, fused parts or gaps: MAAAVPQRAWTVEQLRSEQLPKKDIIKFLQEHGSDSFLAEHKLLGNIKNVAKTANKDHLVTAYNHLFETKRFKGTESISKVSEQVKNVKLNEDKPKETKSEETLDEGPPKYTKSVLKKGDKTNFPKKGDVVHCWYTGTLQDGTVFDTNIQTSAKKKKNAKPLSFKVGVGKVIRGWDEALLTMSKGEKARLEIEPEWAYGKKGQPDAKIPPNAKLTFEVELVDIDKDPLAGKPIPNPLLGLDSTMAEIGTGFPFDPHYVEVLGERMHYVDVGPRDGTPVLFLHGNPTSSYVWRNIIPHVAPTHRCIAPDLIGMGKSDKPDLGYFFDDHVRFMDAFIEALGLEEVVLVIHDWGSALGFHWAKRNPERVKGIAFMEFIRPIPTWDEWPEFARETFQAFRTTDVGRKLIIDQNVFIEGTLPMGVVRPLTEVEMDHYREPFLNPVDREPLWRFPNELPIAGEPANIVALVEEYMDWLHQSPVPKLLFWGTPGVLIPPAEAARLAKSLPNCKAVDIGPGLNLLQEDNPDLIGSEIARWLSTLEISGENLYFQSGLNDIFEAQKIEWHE

Target: FKBP25-HaloTag and EGFP-FRB (Homo sapiens, UniProt Q00688)
Test: Photo-crosslinking of rapamycin-inducible FKBP25-FRB complex in HEK293T cells (Western blot)
Type: cell-based
Details: for generation of photo-crosslinking products of FKBP25-HaloTag and EGFP-FRB: blue LED illumination, rapamycin added, product at about 110 to 120 kDa

SMILES | generation of photo-crosslinked products under UV light illumination | generation of photo-crosslinking products of FKBP25-HaloTag and EGFP-FRB
CC1(C=CC(=O)NCCOCCOCCOCCCCCCCl)N=N1 [UL3, N-(2-(2-(2-((6-chlorohexyl)oxy)ethoxy)ethoxy)ethyl)-3-(3-methyl-3H-diazirin-3-yl)propenamide] | produced photo-crosslinked products | none
O=C(NCCOCCOCCOCCCCCCCl)c1ccc(C2(C(F)(F)F)N=N2)cc1 [UL4, N-(2-(2-(2-((6-chlorohexyl)oxy)ethoxy)ethoxy)ethyl)-4-(3-(trifluoromethyl)-3H-diazirin-3-yl)benzamide] | produced photo-crosslinked products | none
